From PubChem BioAssay AID493014 (National Center for Advancing Translational Sciences (NCATS), 2011) come the findings set out here.

This test is described as follows: qHTS Assay to Find Inhibitors of Chronic Active B-Cell Receptor Signaling. The following applies: ABC-DLBCL IkBa-CBG/CBR reporter, luminescence ratio (green luciferase fused to IkBa over red control in TMD8 lymphoma cells), 4 h. The method in brief:
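Doxycycline induced both beetle luciferases in TMD8 lymphoma cells; IKK-driven degradation limits the IkappaBalpha-fused green signal, while red luminescence normalises for cell number and nonspecific effects. Compounds tested up to 46 uM, 4 hrs.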
Background: In qHTS, concentration-response curves come from the screen itself.

Where [1] appears, read: measured here: CBR red luminescence, cell number.
Where [2] appears, read: measured here: IkBa-CBG green luminescence.

Molecules are shown by their SMILES. The list shows a part of the results. The main result of the screen is listed elsewhere. These columns were measured beside it and carry no call. Compounds called inactive in the main read-out are mostly missing here. Words in brackets tell the shape of the fitted curve; partial curves, single points and poor fits give uncertain potencies.

Regarding `COc1ccc(CC(=O)N/N=C/c2ccc(-c3cccc(C(=O)O)c3)o2)cc1OC`, the half-maximal activity concentration (AC50) under setting [1] was 35.5 µM [falling, single point]. The same measure, in the same setting: under `Cc1cccc2c(=O)n3c(nc12)CCCCC3` stands 29.1 µM [rising, single point]. On to `CCOc1ccc(OCC)c(NC(=O)Nc2ccc3c(c2)N(C)C(=O)CS3)c1`, for which, under setting [1], the AC50 is 23.1 µM [falling, single point].

As to `NC(=O)CSc1nc2cc(Cl)ccc2c(=O)n1C1CCCCC1`, the concentration at half-maximal activity (AC50) under setting [1] was 25.1 µM [rising, single point]. Regarding `CCCc1ccc(/C=C2\C(=O)c3ccccc3C(O)=C2C(=O)OCC)cc1`, under setting [2], the AC50 was 29.1 µM [falling, single point].

Regarding `C=CCNC(=S)NN=C1CCCCCCC1`, the AC50 was 5.01 µM [falling, partial curve] under setting [1] and 5.01 µM [falling, full curve] under setting [2]. On to `Cc1cc(NC(=O)c2cc(-c3cccs3)nc3ccccc23)no1`, for which the AC50 under setting [1] is 5.8 µM [falling, partial curve, poor fit]. Take `Cc1ccc(N=C2NC(=O)/C(=C/c3cccn3C)S2)cc1C`: the AC50 under setting [1] was 12.6 µM [falling, partial curve, poor fit].

In the case of `Cc1ccc(Cn2ccc(NC(=O)c3nn(C)cc3[N+](=O)[O-])n2)cc1`, under setting [1], the AC50 is 9.2 µM [falling, partial curve, poor fit]. Still for that read-out and setting: under `CSc1ccc(/C=C(/Sc2nnc(-c3ccccc3)o2)C(=O)O)cc1` stands 35.5 µM [rising, single point]; under `c1ccc(Cc2nnc3sc(-c4cccnc4)nn23)cc1`, 2.31 µM [rising, single point]; under `COc1ccccc1NC(=O)C(=O)NCCC1CCCCN1S(=O)(=O)c1cccs1` (stereo not drawn), 0.517 µM [falling, full curve]. Still for that read-out and setting: with `Cc1c(CC(=O)NCCCC(=O)O)c(=O)oc2cc3occ(-c4ccccc4)c3cc12` the figure was 22.4 µM [rising, single point]. The same measure, in the same setting: under `O=C(CCCN1C(=O)c2ccccc2C1=O)NCc1cccnc1` stands 10.3 µM [rising, partial curve, poor fit]. For the compound `C=C(NS(=O)(=O)c1ccc(C)cc1)C(=O)OC`, under setting [1], the AC50 is 2.06 µM [rising, full curve, poor fit]. On to `Cc1cc(=O)[nH]c2ccc(Cl)cc12`, for which, under setting [1], the AC50 was 2.91 µM [falling, partial curve]. For `COc1cc(C(=O)N/N=C/c2ccc(OC(=O)c3cccc(C)c3)cc2)ccc1O`, under setting [1], the AC50 was 14.1 µM [falling, partial curve]. In the case of `O=C(CCl)N(c1ccccc1)C1CCCCC1`, the AC50 reads like this: under setting [1], 8.91 µM [falling, partial curve]; under setting [2], 35.5 µM [rising, partial curve, poor fit]. For `C=CCn1c(SCC(=O)Nc2nc3ccccc3s2)nc(O)c(CC)c1=O`, the AC50 under setting [1] is 11.2 µM [falling, partial curve, poor fit]. `COc1ccc(OC)c(NC(=O)C2CC(C)=C(C)CC2C(=O)O)c1` (stereo not drawn): the AC50 under setting [1] is 6.31 µM [falling, single point]. The same measure, in the same setting: under `CCN(CC)CCCNC(=O)CN1N=C(c2ccc(OC)cc2)CCC1=O` stands 15.8 µM [rising, partial curve, poor fit]. Same read-out and setting: under `CCOC(=O)C1CCN(C(=O)Nc2ccc(OC(F)(F)F)cc2)CC1` stands 0.501 µM [falling, full curve, poor fit]. The same measure, in the same setting: under `Cc1cc(=O)oc2cc(OCC(=O)OCC(=O)Nc3ccc(C(N)=O)cc3)ccc12` stands 14.1 µM [rising, partial curve, poor fit]; under `O=C(CSc1nnc(CNC(=O)c2c(F)cccc2Cl)o1)NCc1ccc(F)cc1`, 2.24 µM [rising, partial curve, poor fit]. With `Cc1cc(N/N=C/c2ccc(O)c(C)c2O)nc(-c2ccccc2O)n1`, the AC50 by setting is: under setting [1], 2.31 µM [falling, partial curve, poor fit]; under setting [2], 0.206 µM [rising, full curve, poor fit]. In the case of `CC1=NNC(=O)C1CCC(=O)N/N=C\c1cccc(Cl)c1` (stereo not drawn), under setting [1], the AC50 was 11.2 µM [falling, partial curve, poor fit]. The same measure, in the same setting: under `COc1cccc(CC2(CO)CCCN(Cc3cn(C)c4ccccc34)C2)c1` (stereo not drawn) stands 35.5 µM [falling, single point]; under `CCN(CC)C(=O)CSc1nc(-c2ccccc2)ccc1C#N`, 20 µM [rising, single point]; under `Cc1ccc(-c2nnc(SCC(=O)N3CCN(c4ccccc4)CC3)o2)cc1`, 5.62 µM [rising, single point]. On the same count and under the same terms, under `Nn1c(COc2ccccc2)nnc1SCC(=O)O` stands 0.651 µM [falling, partial curve, poor fit]. As for `CCNC(=O)COc1cc(C)c(Cl)c(C)c1`, under setting [1], the AC50 was 29.1 µM [falling, single point].

On to `CCc1cccc2c(C(=O)C(NC(C)CC)c3ccccc3)c[nH]c12` (stereo not drawn), for which, under setting [1], the AC50 is 35.5 µM [falling, single point].

Regarding `COC(=O)c1cnn(-c2ccc(C(=O)Nc3cc(OC)c(OC)c(OC)c3)cc2)c1N`, the AC50 under setting [1] is 11.2 µM [falling, partial curve, poor fit]. On to `CCOC(=O)c1cc(-c2ccc(OC)cc2)n(CCC(=O)Nc2nc3ccc(OCC)cc3s2)c1C`, for which the AC50 under setting [1] was 3.98 µM [rising, full curve]. Still for that read-out and setting: with `COc1cc(-c2nnc(-c3ccccc3)o2)cc(OC)c1OC` the figure was 32.6 µM [falling, single point]; with `COc1ccc(-n2nnnc2SCC(=O)NC2CC2)cc1`, 29.1 µM [rising, single point]. Still for that read-out and setting: under `COC(=O)N/N=C/c1cc(C)n(-c2ccc(F)cc2)c1C` stands 20 µM [rising, single point]; under `CC(C)c1ccc(C(=O)NC(=S)Nc2ccc3[nH]c(=O)[nH]c3c2)cc1`, 35.5 µM [rising, partial curve, poor fit]; under `COc1ccc(Cl)cc1NS(=O)(=O)c1cccc(C(=O)NCC(c2ccco2)N2CCCC2)c1` (stereo not drawn), 29.1 µM [falling, single point]. For the compound `COc1ccc2nc(-c3ccccc3)[nH]c2c1`, under setting [1], the AC50 is 0.366 µM [falling, full curve, poor fit]. On the same count and under the same terms, with `Cc1nc(N2CCOCC2)c2c(C)c(C(=O)Nc3ccc(C(F)(F)F)cc3)sc2n1` the figure was 10 µM [rising, partial curve]. Take `O=C(Nc1cc(Br)ccc1O)c1cnn2c(C(F)F)cc(C3CC3)nc12`: the AC50 under setting [1] was 6.31 µM [falling, single point]. As for `Cc1ccc2cc(CN(Cc3ccc4c(c3)OCO4)Cc3nnnn3Cc3ccco3)c(=O)[nH]c2c1C`, the AC50 under setting [1] is 29.1 µM [falling, single point]. For the compound `Cc1ccc(-n2c(SCC(=O)NCC3CCCO3)nc3n[nH]c(C)c3c2=N)cc1Cl` (stereo not drawn), the AC50 runs as follows: under setting [1], 14.6 µM [rising, partial curve, poor fit]; under setting [2], 20.6 µM [falling, single point]. Take `Cc1ccc(C2CCN(C(=O)Nc3ccc(F)cc3)C2)cc1` (stereo not drawn): the AC50 under setting [1] is 2.51 µM [falling, partial curve, poor fit]. Same read-out and setting: under `CC(=O)CCCCn1c(=O)c2c(ncn2C)n(C)c1=O` stands 6.51 µM [falling, single point]; under `COc1ccc(NC(=O)c2cc3ccccc3o2)cc1`, 11.2 µM [falling, partial curve].

`C=CCNC(=O)/C(C#N)=C/c1ccc(OS(=O)(=O)c2ccc(C)cc2)c(OC)c1`: the AC50 under setting [2] was 29.1 µM [falling, single point]. Turning to `Cc1cc(C(F)(F)F)c(C#N)c(SCC(=O)NC(C)(C)C)n1`, under setting [1], the half-maximal activity concentration (AC50) was 0.0731 µM [falling, full curve, poor fit].

As for `Cc1cc(NC(=O)CCC(=O)N(c2ccc(F)cc2)C(C(=O)NC2CCCC2)c2ccncc2)no1` (stereo not drawn), the AC50 under setting [1] was 35.5 µM [rising, single point]. As to `Cc1ccc(O)c(C(=O)c2cnc3c(c2)COc2ccccc2-3)c1`, the AC50 by setting is: under setting [1], 32.6 µM [falling, single point]; under setting [2], 23.1 µM [rising, single point]. As to `CC(=O)Nc1ccc(Sc2ccccc2C(=O)O)c(C(=O)O)c1`, under setting [1], the AC50 was 3.55 µM [falling, partial curve, poor fit].

For the compound `Fc1ccc(CCNC(=S)Nc2ccc(F)c(Cl)c2)cc1`, the AC50 under setting [1] was 31.6 µM [falling, single point]. As to `CCc1ccccc1NC(=O)c1cc(-c2cccs2)on1`, the AC50 under setting [1] was 25.1 µM [falling, partial curve, poor fit].

For `Cc1nc(NC(=O)/C=C/c2ccccc2)sc1C(=O)Nc1cccc(Cl)c1`, the AC50 under setting [1] was 8.2 µM [falling, partial curve]. On the same count and under the same terms, under `CSc1nnc(-c2ccccc2)n1N` stands 5.62 µM [rising, partial curve, poor fit]. Still for that read-out and setting: with `CC1(C)c2ccccc2-c2nc3ccccc3cc2C1O` (stereo not drawn) the figure was 4.47 µM [rising, partial curve, poor fit]; with `CC(=O)Nc1ccc(C(=O)OCC(=O)N2CCN(C(=O)c3ccco3)CC2)cc1`, 0.517 µM [rising, full curve, poor fit]; with `c1ccc(-c2cnc(-c3ccccc3)nc2)cc1`, 0.00517 µM [rising, full curve, poor fit]. Consider `CNC(=S)N/N=C/c1cn(CCOc2cccc(OC)c2)c2ccccc12`, for which the AC50 under setting [2] was 10.3 µM [falling, partial curve, poor fit]. For the compound `COc1cccc(NC(=O)c2cnc(SCC(=O)N3CCOCC3)n(C)c2=O)c1`, the AC50 under setting [1] was 3.55 µM [falling, full curve].

Consider `COc1ccc(NC(=O)C(=O)N/N=C/c2cc(C)n(-c3cccc(Cl)c3Cl)c2C)c(OC)c1`, for which the AC50 under setting [1] was 2.59 µM [falling, full curve, poor fit].

Turning to `COc1ccc(NC(=O)C#Cc2ccccc2)cc1OC`, under setting [1], the AC50 was 3.55 µM [falling, partial curve, poor fit].

A word on the AC50: it is the concentration giving half of the maximal activity seen.
